One substance from article PMC4924869 can be followed below.

Sequences of proteins named here, by UniProt entry; tags and fusion partners are left off. A change or cut given only in a name is not applied to a line headed by its entry.
UniProt Q61169: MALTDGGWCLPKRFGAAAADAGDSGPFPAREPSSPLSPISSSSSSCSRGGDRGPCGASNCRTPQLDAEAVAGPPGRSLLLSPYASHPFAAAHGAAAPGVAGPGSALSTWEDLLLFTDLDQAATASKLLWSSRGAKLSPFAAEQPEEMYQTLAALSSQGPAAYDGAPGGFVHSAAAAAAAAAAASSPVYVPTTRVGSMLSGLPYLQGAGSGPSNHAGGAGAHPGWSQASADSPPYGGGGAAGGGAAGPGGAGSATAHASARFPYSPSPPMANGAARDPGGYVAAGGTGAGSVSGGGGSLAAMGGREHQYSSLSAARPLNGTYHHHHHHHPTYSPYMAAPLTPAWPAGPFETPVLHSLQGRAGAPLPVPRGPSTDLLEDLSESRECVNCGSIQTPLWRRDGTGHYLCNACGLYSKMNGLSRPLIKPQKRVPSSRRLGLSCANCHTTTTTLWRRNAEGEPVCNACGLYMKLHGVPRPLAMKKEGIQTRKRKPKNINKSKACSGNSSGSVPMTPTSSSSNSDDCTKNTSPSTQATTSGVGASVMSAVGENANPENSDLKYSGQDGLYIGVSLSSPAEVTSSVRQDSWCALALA
UniProt Q61602: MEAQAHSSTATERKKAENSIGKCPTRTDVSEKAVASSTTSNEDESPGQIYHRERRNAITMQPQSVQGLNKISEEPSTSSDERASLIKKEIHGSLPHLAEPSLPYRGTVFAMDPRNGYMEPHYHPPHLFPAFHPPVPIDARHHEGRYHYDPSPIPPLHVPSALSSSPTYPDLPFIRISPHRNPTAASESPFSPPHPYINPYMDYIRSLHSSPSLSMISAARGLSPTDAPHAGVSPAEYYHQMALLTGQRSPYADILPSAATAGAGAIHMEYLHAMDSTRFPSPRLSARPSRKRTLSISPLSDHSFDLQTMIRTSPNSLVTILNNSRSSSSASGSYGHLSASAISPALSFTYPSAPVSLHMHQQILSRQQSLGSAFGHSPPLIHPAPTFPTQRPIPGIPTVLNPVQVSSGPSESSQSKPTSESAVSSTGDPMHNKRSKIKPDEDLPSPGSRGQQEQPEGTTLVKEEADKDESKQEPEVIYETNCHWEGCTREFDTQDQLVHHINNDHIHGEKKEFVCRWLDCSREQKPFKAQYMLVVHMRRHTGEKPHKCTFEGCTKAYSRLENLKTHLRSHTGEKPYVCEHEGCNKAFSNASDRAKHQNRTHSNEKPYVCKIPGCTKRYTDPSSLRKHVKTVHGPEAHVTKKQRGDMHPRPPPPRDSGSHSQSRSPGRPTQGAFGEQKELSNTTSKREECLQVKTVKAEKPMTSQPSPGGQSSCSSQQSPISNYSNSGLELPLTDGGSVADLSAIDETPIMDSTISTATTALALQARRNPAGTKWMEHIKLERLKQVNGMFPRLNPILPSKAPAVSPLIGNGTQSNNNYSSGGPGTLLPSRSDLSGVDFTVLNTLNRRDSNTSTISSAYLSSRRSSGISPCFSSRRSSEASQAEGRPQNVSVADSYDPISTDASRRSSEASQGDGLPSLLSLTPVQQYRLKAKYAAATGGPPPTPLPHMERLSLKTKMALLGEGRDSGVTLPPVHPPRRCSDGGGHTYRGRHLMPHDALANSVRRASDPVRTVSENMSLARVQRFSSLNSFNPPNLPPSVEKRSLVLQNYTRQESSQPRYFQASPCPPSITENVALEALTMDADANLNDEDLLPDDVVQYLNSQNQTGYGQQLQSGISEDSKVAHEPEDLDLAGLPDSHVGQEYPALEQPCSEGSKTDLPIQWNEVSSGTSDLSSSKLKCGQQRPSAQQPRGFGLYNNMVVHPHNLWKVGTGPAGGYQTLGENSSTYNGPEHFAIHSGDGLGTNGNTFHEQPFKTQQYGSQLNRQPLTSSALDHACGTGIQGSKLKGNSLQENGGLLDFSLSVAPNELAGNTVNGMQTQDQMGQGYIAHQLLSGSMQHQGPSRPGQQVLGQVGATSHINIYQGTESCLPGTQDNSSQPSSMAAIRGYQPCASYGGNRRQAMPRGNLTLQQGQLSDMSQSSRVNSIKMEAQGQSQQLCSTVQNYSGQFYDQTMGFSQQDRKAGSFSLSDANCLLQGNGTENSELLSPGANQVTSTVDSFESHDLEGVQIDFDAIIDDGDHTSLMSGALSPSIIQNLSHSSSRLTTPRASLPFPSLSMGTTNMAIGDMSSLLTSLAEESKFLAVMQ

Results are given in words; binding and its absence hold for the method and conditions named. In cells and extracts the contact can be indirect. Binding calls can cover weak binding; strength is not graded here.

This assay has as its target GATA6, endogenous in mouse hindlimb buds (mouse (endogenous in hindlimb buds)) (UniProt Q61169). The experiment in a line: co-IP; lysate of pooled wild-type mouse hindlimb buds, E10.25-10.5; anti-GATA6 (Cell Signaling #5851) and Dynabeads protein G; Western with anti-GLI3 (R&D Systems AF3690).

On to “GLI3R, endogenous in mouse hindlimb buds (from UniProt Q61602)”, for which the binding entry is listed as “binds”.
